# Results deposited as PubChem BioAssay AID652243 (Drosophila RNAi Screening Center, 2013).
# Purpose: 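Knock-downs that decrease or increase androgen receptor reporter signal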 (primary screen)
# Cells: Drosophila S2R+ cells
# Reagent: long dsRNA against Drosophila genes
# Time to read-out: 72 h (48 h, then 24 h hormone)
# Treatment: synthetic androgen R1881 at 10 nM for 24 h
# Read-out: 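Firefly light from an androgen-responsive reporter and Renilla control light per well, raw and unnormalised, for each of two replicates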
# Scale: firefly reporter light: higher = more light from androgen-responsive reporter; Renilla control light: higher = more constitutive control signal (cell number, transfection)
# Active means: 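Hit when the log firefly-to-Renilla ratio dropped or increased by a fixed fold versus the mean of GFP or LacZ controls across duplicate plates; lowering cut given as 1.5 and as 3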
# Calls: active = hit: reporter lowered or raised; inactive = no hit
# The deposit covers about 24,000 reagents; below is a random part of those that have a named target and a result. In the full data, 246 (1%) are marked active. 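Plates not normalised; calls are printed but the firefly/Renilla ratio behind them is not deposited; fold cut for lowering reported inconsistently.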 Raw values vary from plate to plate and are shown uncorrected. Reagents against one gene are numbered here. Names joined by + are all predicted targets of the reagent. Reagent sequences are not shown. Not stated in the record: the amount of reagent.
gene knocked down,reagent no.,"firefly reporter light, replicate 1","firefly reporter light, replicate 2","Renilla control light, replicate 1","Renilla control light, replicate 2",call
CG13871 (GeneID 37303),1,92537,77247,8.77e5,1.02e6,inactive
CG13871 (GeneID 37303),2,5.89e5,3.99e5,1.83e6,1.39e6,inactive
TAF1C-like (GeneID 37450),1,9.05e5,1.14e6,2.63e6,2.15e6,inactive
raskol (GeneID 32754),1,8.41e5,1.14e6,9.73e5,8.45e5,inactive
raskol (GeneID 32754),2,3.91e5,3.42e5,3.10e6,2.70e6,inactive
raskol (GeneID 32754),3,4.00e5,3.84e5,3.47e6,3.75e6,inactive
raskol (GeneID 32754),4,7.26e5,7.40e5,1.95e6,2.03e6,inactive
CG17572 (GeneID 35182),1,1.32e5,1.33e5,1.61e6,1.08e6,inactive
Obp56a (GeneID 37264),1,82565,1.52e5,8.73e5,1.54e6,inactive
Obp56a (GeneID 37264),2,7.86e5,7.07e5,1.01e6,8.15e5,inactive
CG9135 (GeneID 33850),1,8.61e5,1.17e6,2.27e6,2.09e6,inactive
Whamy (GeneID 41198),1,1.26e5,1.56e5,2.52e6,1.52e6,inactive
Whamy (GeneID 41198),2,5.41e5,5.75e5,1.59e6,1.34e6,inactive
Clp (GeneID 33259),1,1.23e5,88918,7.86e5,7.61e5,inactive
CG32845 (GeneID 318243),1,88398,2.00e5,3.40e5,3.80e5,inactive
CG32845 (GeneID 318243),2,9.27e5,7.83e5,1.67e6,1.69e6,inactive
RnrS (GeneID 36280),1,7.80e5,2.48e5,1.11e6,1.03e6,inactive
RnrS (GeneID 36280),2,2.87e5,2.19e5,1.45e6,5.31e5,inactive
CG17002 (GeneID 35610),1,1.08e6,1.07e6,2.53e6,2.28e6,inactive
CG17002 (GeneID 35610),2,3.33e5,2.07e5,4.60e5,5.31e5,inactive
Tspo + rempA,1,6.21e5,8.09e5,1.75e6,1.02e6,inactive
CG31230 (GeneID 318637),1,6.38e5,7.10e5,2.44e6,1.89e6,inactive
CG31230 (GeneID 318637),2,6.28e5,6.05e5,7.74e5,6.80e5,inactive
CG17249 (GeneID 38201),1,9.83e5,6.10e5,2.26e6,1.07e6,inactive
CG15571 (GeneID 31365),1,2.34e5,1.71e5,2.42e6,2.30e6,inactive
CG15571 (GeneID 31365),2,1.45e6,2.00e6,1.24e6,1.17e6,inactive
CG43121 (GeneID 12798254),1,1.15e6,1.34e6,1.52e6,2.56e6,inactive
fzo (GeneID 42745),1,1.51e5,2.19e5,2.62e6,2.57e6,inactive
v (GeneID 32026),1,1.52e5,98578,6.07e5,5.20e5,inactive
v (GeneID 32026),2,3.45e5,6.11e5,1.28e6,3.11e6,inactive
CG30062 (GeneID 246428),1,6.13e5,5.48e5,6.83e5,5.21e5,inactive
Ir60d (GeneID 7354402),1,3.79e5,3.57e5,2.87e6,2.76e6,inactive
CG7488 (GeneID 41597),1,1.35e5,1.27e5,1.94e6,1.66e6,inactive
MED17 (GeneID 42175),1,61555,40388,6.32e5,5.54e5,inactive
CG14298 (GeneID 42259),1,2.29e5,2.60e5,3.71e6,3.10e6,inactive
Fmr1 (GeneID 37528),1,1.21e5,1.07e5,2.38e6,2.49e6,inactive
Fmr1 (GeneID 37528),2,2.78e5,3.12e5,5.66e5,5.94e5,inactive
Pgls (GeneID 32013),1,4.06e5,4.59e5,3.23e6,2.69e6,inactive
CG3036 (GeneID 33695),1,3.50e5,6.55e5,1.48e6,2.39e6,inactive
CG3036 (GeneID 33695),2,7.86e5,9.85e5,1.57e6,1.92e6,inactive
CG3036 (GeneID 33695),3,7.26e5,9.00e5,1.02e6,1.02e6,inactive
CG3618 (GeneID 40303),1,26979,33235,3.09e5,3.08e5,inactive
Upf1 (GeneID 32153),1,97456,97121,5.97e5,6.43e5,inactive
Dok (GeneID 31667),1,7867,6898,2.72e5,3.30e5,active
Dok (GeneID 31667),2,4.91e5,3.37e5,4.29e5,4.77e5,inactive
Kua (GeneID 35300),1,1.60e5,2.44e5,1.69e6,2.11e6,inactive
CG7627 (GeneID 34148),1,1.01e6,1.06e6,2.27e6,2.41e6,inactive
CG7627 (GeneID 34148),2,6.75e5,9.03e5,7.64e5,8.15e5,inactive
CG7627 (GeneID 34148),3,7.44e5,8.31e5,1.89e6,1.83e6,inactive
CG9701 (GeneID 39872),1,69956,51314,5.70e5,3.81e5,inactive
CG9701 (GeneID 39872),2,3.48e5,2.80e5,5.90e5,6.54e5,inactive
ocm (GeneID 37874),1,5.49e5,7.32e5,1.23e6,1.14e6,inactive
ocm (GeneID 37874),2,2.40e5,3.00e5,6.17e5,7.04e5,inactive
Or56a (GeneID 37269),1,1.39e5,1.57e5,1.13e6,1.34e6,inactive
CG7910 (GeneID 40956),1,1.34e5,1.08e5,2.68e6,2.40e6,inactive
CG13465 (GeneID 50282),1,2.36e5,1.91e5,1.67e6,2.11e6,inactive
stil (GeneID 36380),1,7.64e5,8.54e5,1.12e6,1.25e6,inactive
CG31266 (GeneID 42071),1,2.52e5,2.06e5,3.04e6,2.74e6,inactive
